No constants are given. Whether binding was seen depends on the method and setting. Binding seen in cells or lysates may run through a third protein. A yes stands for co-enrichment or nearness to the bait. Other partners may have been found. Tags and fused reporters may be left off the sequences shown. Blank lines part the entries; values can stand above or below the binder they belong to.
Target: T1, GFP-SKD1 (SUPPRESSOR OF K(+) TRANSPORT GROWTH DEFECT 1) (A. thaliana) (UniProt Q9ZNT0)
T1 sequence: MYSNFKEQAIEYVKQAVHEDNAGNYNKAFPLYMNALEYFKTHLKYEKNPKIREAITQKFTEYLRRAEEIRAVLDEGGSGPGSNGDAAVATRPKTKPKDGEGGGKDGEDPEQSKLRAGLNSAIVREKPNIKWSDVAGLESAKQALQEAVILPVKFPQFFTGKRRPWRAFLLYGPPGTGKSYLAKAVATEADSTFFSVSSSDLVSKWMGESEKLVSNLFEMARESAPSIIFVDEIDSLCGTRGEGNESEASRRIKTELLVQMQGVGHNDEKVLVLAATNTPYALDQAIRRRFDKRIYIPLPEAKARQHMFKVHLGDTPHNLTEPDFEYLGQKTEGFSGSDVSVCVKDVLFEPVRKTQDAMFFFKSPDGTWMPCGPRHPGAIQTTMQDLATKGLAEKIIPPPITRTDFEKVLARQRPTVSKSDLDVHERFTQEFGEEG
Assay: affinity purification with mass spectrometry; GFP-SKD1 immunoprecipitated with the GFP Isolation kit (Miltenyi Biotec; anti-GFP magnetic beads) from extracts of rosette leaves of 35S::GFP-SKD1 plants, heat-treated or kept at RT; on-bead digest, LC-MS/MS; 35S::YFP line as negative control; 3 replicates each

binding: binds
B1: EUKARYOTIC …ON INITIATION FACTOR 4B1 (protein, UniProt Q9LIN5 1-532)
chain: MSKAWGGIGIGAWADEAERADEEQAAEATAATADTQSFPSLREAAAATATSGKSRKMKKMSLSEFTTGAYTAPGGRNSVGLTQQEILQLPTGPRQRSEEEMQPGRLGGGFSSYGGRSGGRIGRDRDDSDGSWSGGGGGGGRRPYGGGFDDDRRGNQSRVSDFPQPSRADEVDDWGKEKKPLPSFDQGRQGRYSGDGGGFGGGGSGFGGGGGGGGGGLSRADDVDNWGAGKRQAPVRSSTFGSSFGDSGQEERRRLVLEPRKVESGGSETPPVVEKTSKPNPFGAARPREDVLAEKGLDWKKIDSEIEAKKGSSQTSRPTSAHSSRPSSAQSNRSESSGLNNVVKPRPKVNPFGDAKPREVLLEEQGKDWRKMDLELEHRRVDRPETEEEKMLKEEIEELRKKLEKESVAPEIKESDQEPGSNNNHNDLPEIIRGKEKDLEILTRELDDKVRFRQKPVERPGSGAGRTGTYSERTHSRAGSIDETRSFESTERPRSRGAVDAWVRPANEQRRNFQGTKERGFFSNRSSSREGW

binding: binds
B4: HOMOLOG OF HUMAN KARYOPHENIN SUBUNIT BETA 1 (protein, UniProt Q9FJD4 1-870)
chain: MAMEVTQLLINAQSIDGTVRKHAEESLKQFQEQNLAGFLLSLAGELANDEKPVDSRKLAGLVLKNALDAKEQHRKYELVQRWLALDMSTKSQIRAFLLKTLSAPVPDVRSTASQVIAKVAGIELPQKQWPELIVSLLSNIHQLPAHVKQATLETLGYLCEEVSPDVVEQEHVNKILTAVVQGMNAAEGNTDVRLAATRALYMALGFAQANFNNDMERDYIMRVVCEATLSPEVKIRQAAFECLVSIASTYYEKLAHYMQDIFNITAKAVREDDESVALQAIEFWSSICDEEIDILEEYGGEFAGDSDVPCFYFTKQALPGLVPLLLETLLKQEEDQDLDEGAWNIAMAGGTCLGLVARAVGDDIVPHVMPFIEEKISKPDWREREAATYAFGSILEGPSADKLMAIVNAALTFMLNALTNDPSNHVKDTTAWTLGRIFEFLHGSTIETPIINQANCQQIITVLIQSMNDAPNVAEKACGALYFLAQGYEDIGPSSPLTPFFQEIIKSLLAVAHREDATESRLRTAAYEALNEVVRCSTDETSTMVLQLVPVIMMELHNTLEGEKLSLDEREKQNELQGLLCGCLQVIIQKLGSEPTKSKFMEYADQMMGLFLRVFGCRSATAHEEAMLAIGALAYAAGPNFAKYMPEFYKYLEMGLQNFEEYQVCAVTVGVVGDVCRALEDKILPYCDGIMTQLLKDLSSNQLHRSVKPPIFSCFGDIALAIGEDFDKYWRYSMPMLQSAAELSAHSAGADDEMTEYTNSLRNGILEAYSGIFQGFKNSAKTQLLIPFAPHILQFLDSIYMEKDMDEVVMKTAIGVLGDLADTLGSHVGGLIQQSVSSKEFLNECLSSEDHTIKEAAEWAKHAITRAISV

Further lines, the binder ahead of its results:

B2: DEAD-BOX ATP-… RNA HELICASE 56 (protein, UniProt Q56XG6 1-427)
chain: MGDARDNEAYEEELLDYEEEDEKVPDSGNKVNGEAVKKGYVGIHSSGFRDFLLKPELLRAIVDSGFEHPSEVQHECIPQAILGMDVICQAKSGMGKTAVFVLSTLQQIEPSPGQVSALVLCHTRELAYQICNEFVRFSTYLPDTKVSVFYGGVNIKIHKDLLKNECPHIVVGTPGRVLALAREKDLSLKNVRHFILDECDKMLESLDMRRDVQEIFKMTPHDKQVMMFSATLSKEIRPVCKKFMQDPMEIYVDDEAKLTLHGLVQHYIKLSEMEKNRKLNDLLDALDFNQVVIFVKSVSRAAELNKLLVECNFPSICIHSGMSQEERLTRYKSFKEGHKRILVATDLVGRGIDIERVNIVINYDMPDSADTYLHRVGRAGRFGTKGLAITFVASASDSEVLNQVQERFEVDIKELPEQIDTSTYMPS
binding: binds

B3: DEK DOMAIN-CONTAINING CHROMATIN ASSSOCIATED PROTEIN (protein, UniProt Q9SMM8 1-462)
chain: MATETLELKTPQLADTVAVTEKDTETKKKDEVEKDEAMEEKGEEIDGEKVKSPVTPVSERPIRERKRTGRYVIDTPPRSSGNKPLSITQGRGTRLKEIPNVAYKLSKRKPDDNLFLLHTILYGKKAKAQMLKKNIGQFSGFVWSEQEEEKQRAKAKEKLDKCIKEKLIDFCDVLDIPVNKSTVKKEELAVRVLEFLVCPKATRDILLADSEKETKKRKKSTSKNVTSGESSHVPAKRRRQAKKQEQPTETEGNGESDVGSEGTNDSNGEDDVAPEEENNKSEDTETEDEKDKAKEKTKSTDKKRLSKRTKKEKPAAEEEKSIKGSAKSSRKSFRQVDKSTTSSSKKQKVDKDDSSKEKGKTQTSKPQAKGSKDQGQSRKKGKKEPTRKELHVVVTKILKEVDFNTATLSDILRKLGSHFGIDLMHRKAEVKDIITDAINEMSDDDDEKEEDTEDEGEKEGKD
binding: binds
